Data as given in article PMC9821108, “Biochemical and Structural Analyses Shed Light on the Mechanisms of RadD DNA Binding and Its ATPase from Escherichia coli” (International Journal of Molecular Sciences, 2023).

Tests used:
Assay in all cases: EMSA
RadD (Escherichia coli) = target: T1, RadD (Escherichia coli) (UniProt P33919); settings: no ATP stated, 0-20 uM RadD, 33 nM HJ, 20 mM Bis-Tris pH 6.5, 50 mM NaCl, 15% glycerol, 10 mM beta-mercaptoethanol, 37 C 30 min, 8% native PAGE in 0.5x TBE, text says 'branched DNA', recombinant protein, folded or branched DNA
T1 sequence (looked up, limits assumed): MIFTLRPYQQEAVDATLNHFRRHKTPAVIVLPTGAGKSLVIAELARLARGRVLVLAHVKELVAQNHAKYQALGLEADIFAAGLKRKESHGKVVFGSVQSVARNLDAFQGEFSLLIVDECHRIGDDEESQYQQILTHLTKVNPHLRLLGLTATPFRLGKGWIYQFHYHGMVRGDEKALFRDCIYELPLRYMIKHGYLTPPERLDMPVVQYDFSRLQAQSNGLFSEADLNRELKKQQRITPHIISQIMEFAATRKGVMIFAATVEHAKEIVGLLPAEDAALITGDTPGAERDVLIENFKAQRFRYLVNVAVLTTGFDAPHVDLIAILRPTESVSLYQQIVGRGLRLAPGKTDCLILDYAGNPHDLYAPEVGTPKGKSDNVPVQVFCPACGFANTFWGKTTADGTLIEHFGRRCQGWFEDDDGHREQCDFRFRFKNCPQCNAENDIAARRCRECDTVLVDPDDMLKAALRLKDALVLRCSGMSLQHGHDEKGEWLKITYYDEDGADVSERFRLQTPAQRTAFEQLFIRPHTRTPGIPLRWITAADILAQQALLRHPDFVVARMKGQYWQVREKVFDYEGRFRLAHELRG

[1] = target: T2, RadD RD1-RD2 (Escherichia coli) (UniProt P33919); settings: stated as cannot bind branched DNA; 20 mM Bis-Tris pH 6.5, 50 mM NaCl, 15% glycerol, 10 mM beta-mercaptoethanol, 37 C 30 min, 33 nM HJ, 0-20 uM RadD; 8% native PAGE in 0.5x TBE; text says 'branched DNA'; recombinant protein; folded or branched DNA; counted as no binding
T2 sequence (looked up, limits assumed): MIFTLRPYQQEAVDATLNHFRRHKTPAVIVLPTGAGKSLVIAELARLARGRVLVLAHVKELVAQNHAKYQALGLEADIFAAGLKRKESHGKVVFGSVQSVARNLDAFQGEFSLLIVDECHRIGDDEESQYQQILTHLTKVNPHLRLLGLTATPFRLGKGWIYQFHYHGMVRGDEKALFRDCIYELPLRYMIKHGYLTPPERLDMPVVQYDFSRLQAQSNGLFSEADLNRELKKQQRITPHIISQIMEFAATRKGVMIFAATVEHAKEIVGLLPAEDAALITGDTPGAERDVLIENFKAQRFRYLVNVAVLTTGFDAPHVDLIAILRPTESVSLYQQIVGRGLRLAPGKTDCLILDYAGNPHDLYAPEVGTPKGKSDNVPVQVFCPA

[2] = target: T3, RadD ZFD-CTD (Escherichia coli) (UniProt P33919); settings: 20 mM Bis-Tris pH 6.5, 50 mM NaCl, 15% glycerol, 10 mM beta-mercaptoethanol, 37 C 30 min, 33 nM HJ, 0-20 uM RadD; 8% native PAGE in 0.5x TBE; text says 'branched DNA'; recombinant protein; folded or branched DNA
T3 sequence (looked up, limits assumed): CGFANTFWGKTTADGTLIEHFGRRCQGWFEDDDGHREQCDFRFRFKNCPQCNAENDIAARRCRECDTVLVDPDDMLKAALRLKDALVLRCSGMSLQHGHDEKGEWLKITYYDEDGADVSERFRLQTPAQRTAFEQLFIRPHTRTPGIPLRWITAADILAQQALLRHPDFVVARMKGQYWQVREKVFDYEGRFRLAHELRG

Q: What does the source list for “CCGCTACCAGTGATCACCAATGGATTGCTAGGACATCTTTGCCCACCTGCAGGTTCACCC / TGGGTGAACCTGCAGGTGGGCAAAGATGTCCTAGCAATCCATTGTCTATGACGTCAAGCTC / GAGCTTGACGTCATAGACAATGGATTGCTAGGACATCTTTGCCGTCTTGTCAATATCGGC / TGCCGATATTGACAAGACGGCAAAGATGTCCTAGCAATCCATTGGTGATCACTGGTAGCGG [Holliday junction (HJ)]”?
A: binding signal (RadD (Escherichia coli)): 100%; binding signal [1]: 6 % of WT; binding signal [2]: 69 % of WT

The exact form of at least one protein or probe is not confirmed. The direction of at least one scale is not stated here. Protein sequences can lack the tags named with them.
